Record: PubChem BioAssay AID1259405 (NCATS, 2018)
This is an unselected part of about 50,000 reagents tested. Of all reagents, about 4,000 (8%) are marked active. 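Mouse siRNA library applied to hamster cells; one well for each siRNA.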 The numbers tell different reagents against one gene apart.

Aim: 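Mouse-designed siRNAs used to find CHO productivity engineering targets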 (primary screen)
Cell system: Chinese hamster CHO-K1 ovary cells with stable secreted eGFP expression
Knock-down reagent: single siRNA against mouse genes, 0.8 pmol siRNA per well (2 µl of 400 nM stock)
Time to read-out: 3 days
Measured: 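Percent of the per-plate non-targeting control median for intracellular GFP per well by laser scanning cytometry and for cell viability by ATP luminescence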
Scale: GFP, % of control: higher = more GFP per well, higher productivity; viability (ATP), % of control: higher = more viable cells (more ATP)
Call rule: 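a knock-down is called active if GFP reaches 120% or more of non-targeting control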

target gene	reagent	GFP, % of control	viability (ATP), % of control	outcome
Pcdhb5	1	75	67.5	inactive
Pcdhb5	2	91.1	79.1	inactive
Mcpt4	1	46.4	69.6	inactive
Mcpt4	2	58	59.2	inactive
Mcpt4	3	99.9	110	inactive
Oaz1	1	65.2	96.4	inactive
Oaz1	2	42.1	59.1	inactive
Adk	1	301	134	active
Adk	2	80.6	94.7	inactive
Adk	3	69.3	79.9	inactive
Klhl26	1	68.8	80.9	inactive
Klhl26	2	73.4	69.6	inactive
Klhl26	3	107	87.6	inactive
Ahsp	1	76.6	46.1	inactive
Ahsp	2	173	95.7	active
Ahsp	3	64.9	58.6	inactive
Zfp772	1	33.9	44.1	inactive
Zfp772	2	94.5	73.9	inactive
Zfp772	3	98	84.5	inactive
Atp5mk	1	43.2	46.4	inactive
Atp5mk	2	40.5	37.1	inactive
Atp5mk	3	74.7	84.3	inactive
Fgd5	1	76.4	71.8	inactive
Fgd5	2	89.4	92.9	inactive
Fgd5	3	86.5	66.1	inactive
Xrcc4	1	62.6	51.4	inactive
Xrcc4	2	93.4	86	inactive
Xrcc4	3	92.2	99.8	inactive
Arsb	1	82.9	92.7	inactive
Arsb	2	74.1	87.2	inactive
Arsb	3	93.2	44.2	inactive
Arsb	4	97.3	89.9	inactive
Arsb	5	60.1	60.6	inactive
Arsb	6	64.8	82.2	inactive
Olfr900	1	69	58.8	inactive
Olfr900	2	66.4	53.6	inactive
Olfr900	3	95.9	107	inactive
Lsm14b	1	80.2	51.4	inactive
Lsm14b	2	80.6	79.3	inactive
Lsm14b	3	103	121	inactive
Or5ak4	1	83.7	70.8	inactive
Or5ak4	2	77.6	83.4	inactive
Or5ak4	3	76.9	68	inactive
Carhsp1	1	95.7	91.6	inactive
Carhsp1	2	41.3	74.6	inactive
Carhsp1	3	38.9	53.6	inactive
Rnf31	1	107	91.2	inactive
Rnf31	2	26.1	58.5	inactive
Rnf31	3	50.2	69.6	inactive
Nr5a2	1	57.6	87.2	inactive
Nr5a2	2	125	92.6	active
Nr5a2	3	93.8	41.5	inactive
Rdh16f2	1	137	132	active
Rdh16f2	2	73.5	76.4	inactive
Rdh16f2	3	58.2	30.8	inactive
Or4c115	1	83.6	90.7	inactive
Or4c115	2	68.6	84.4	inactive
Or4c115	3	41.5	108	inactive
Efemp1	1	65.1	66	inactive
Efemp1	2	101	121	inactive
Efemp1	3	113	64.4	inactive
Cct3	1	76.4	66.7	inactive
Cct3	2	56.4	48.8	inactive
Cct3	3	83	40.3	inactive
Glg1	1	55.4	55	inactive
Glg1	2	54.4	60.6	inactive
Glg1	3	59.7	52.8	inactive
Ldha	1	69.6	101	inactive
Ldha	2	80.7	71.6	inactive
Ldha	3	73.5	86	inactive
Ccdc12	1	147	95.7	active
Ccdc12	2	56.6	95.1	inactive
Ccdc12	3	74.5	77.5	inactive
Foxred2	1	366	109	active
Foxred2	2	65.1	48.8	inactive
Foxred2	3	81.2	81	inactive
Csnk2b	1	50.5	96.3	inactive
Csnk2b	2	85.6	85.1	inactive
Or9r7	1	41.9	46.9	inactive
Or9r7	2	13.7	35.4	inactive
Or9r7	3	35.2	42.4	inactive
Ccar1	1	74.4	90.3	inactive
Ccar1	2	48.7	69.5	inactive
Gykl1	1	88.1	93.1	inactive
Gykl1	2	47.2	53.8	inactive
Gykl1	3	90.7	75.4	inactive

Records above whose target name begins with N or n (3):
target gene	reagent	GFP, % of control	viability (ATP), % of control	outcome
Nr5a2	1	57.6	87.2	inactive
Nr5a2	2	125	92.6	active
Nr5a2	3	93.8	41.5	inactive
